No constants are given. Whether binding was seen depends on the method and setting. Binding seen in cells or lysates may run through a third protein. Some results given as binding are weak or reduced against the parent protein; the word gives no strength.
Molecular target: T1, Flotillin-2/reggie-1 (human (endogenous in Beas2B)) (UniProt Q14254)
T1 sequence: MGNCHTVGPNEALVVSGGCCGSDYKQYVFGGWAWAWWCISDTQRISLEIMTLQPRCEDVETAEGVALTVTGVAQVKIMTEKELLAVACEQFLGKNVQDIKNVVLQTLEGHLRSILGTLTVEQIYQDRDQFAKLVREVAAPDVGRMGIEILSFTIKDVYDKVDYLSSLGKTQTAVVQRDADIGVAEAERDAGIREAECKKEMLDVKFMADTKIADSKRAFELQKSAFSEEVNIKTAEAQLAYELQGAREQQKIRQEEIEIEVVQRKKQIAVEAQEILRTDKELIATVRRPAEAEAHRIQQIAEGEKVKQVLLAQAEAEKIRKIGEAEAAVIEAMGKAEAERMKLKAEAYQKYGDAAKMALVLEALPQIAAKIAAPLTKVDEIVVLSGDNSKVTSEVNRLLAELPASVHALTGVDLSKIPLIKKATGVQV
Assay: co-IP; Beas2B lysate immunoprecipitated with anti-Flot-2 antibody, protein A/G Sepharose, Western blot; cells exposed to hyperoxia (95% oxygen, 4h) or room air

Sequences of proteins named here, by UniProt entry; tags and fusion partners are left off. Residues count along the entry.
UniProt P25445, residues 26-335: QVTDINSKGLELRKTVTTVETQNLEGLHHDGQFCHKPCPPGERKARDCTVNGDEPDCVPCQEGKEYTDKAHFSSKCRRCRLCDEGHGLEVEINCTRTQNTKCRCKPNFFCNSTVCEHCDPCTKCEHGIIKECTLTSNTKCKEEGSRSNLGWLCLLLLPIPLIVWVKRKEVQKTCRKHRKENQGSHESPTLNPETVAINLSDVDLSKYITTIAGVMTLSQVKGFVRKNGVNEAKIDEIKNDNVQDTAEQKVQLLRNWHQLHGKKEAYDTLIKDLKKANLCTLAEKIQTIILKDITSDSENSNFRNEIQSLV
UniProt Q13158: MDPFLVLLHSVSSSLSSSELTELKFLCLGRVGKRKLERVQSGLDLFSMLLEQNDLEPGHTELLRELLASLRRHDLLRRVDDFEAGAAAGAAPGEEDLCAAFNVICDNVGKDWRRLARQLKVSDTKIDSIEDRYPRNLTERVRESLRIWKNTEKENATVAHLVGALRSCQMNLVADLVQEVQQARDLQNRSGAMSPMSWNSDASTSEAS
UniProt Q14790: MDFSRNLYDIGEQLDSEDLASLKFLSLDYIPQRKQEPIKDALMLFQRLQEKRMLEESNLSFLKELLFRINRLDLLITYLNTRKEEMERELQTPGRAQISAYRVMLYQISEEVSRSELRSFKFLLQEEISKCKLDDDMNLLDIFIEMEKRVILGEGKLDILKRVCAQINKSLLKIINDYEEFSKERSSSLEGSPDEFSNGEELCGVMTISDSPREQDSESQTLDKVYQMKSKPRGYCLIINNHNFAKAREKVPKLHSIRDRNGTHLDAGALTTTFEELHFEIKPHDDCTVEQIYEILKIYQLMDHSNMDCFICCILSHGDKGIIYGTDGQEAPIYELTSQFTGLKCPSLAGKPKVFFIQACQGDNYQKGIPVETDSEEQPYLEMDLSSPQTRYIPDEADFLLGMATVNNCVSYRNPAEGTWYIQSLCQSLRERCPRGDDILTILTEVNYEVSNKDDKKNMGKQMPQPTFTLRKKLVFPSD

Substance	binding
Fas (CD95/APO-1/TNFRSF6) (from UniProt P25445 26-335) (receptor)	binds
Fas associated death domain (from UniProt Q13158 1-208)	binds
caspase-8 (FLICE) (from UniProt Q14790 1-479) (enzyme)	binds
